From paper PMC9814400 (Communications Chemistry, 2022)

System: p97
Experiment: BLI affinity from kinetic data compared with steady-state affinity
Assay type: binding
Settings: construct not stated

| SMILES | lower affinity deduced from kinetic data vs steady state |
| --- | --- |
| Cc1ccc(-c2csc3nc(CO)cn23)cc1 [TROLL14] | up to 3.5 times |
| Nc1[nH]ncc1-c1ccc(Cl)cc1 [TROLL18] | up to 3.5 times |
